{"source": "paper doi:10.1101/2022.03.15.484321", "binders": {"B1": {"name": "GFP-Par6A^Cter (domain or fragment, UniProt Q9NPB6 121-346)", "chain": "PVAPLRTRPPLLISLPQDFRQVSSVIDVDLLPETHRRVRLHKHGSDRPLGFYIRDGMSVRVAPQGLERVPGIFISRLVRGGLAESTGLLAVSDEILEVNGIEVAGKTLDQVTDMMVANSHNLIVTVKPANQRNNVVRGASGRLTGPPSAGPGPAEPDSDDDSSDLVIENRQPPSSNGLSQGPPCWDLHPGCRHPGTRSSLPSLDDQEQASSGWGSRIRGDGSGFSL"}, "B2": {"name": "GFP-Par6A^Nter (domain or fragment, UniProt Q9NPB6 1-121)", "chain": "MARPQRTPARSPDSIVEVKSKFDAEFRRFALPRASVSGFQEFSRLLRAVHQIPGLDVLLGYTDAHGDLLPLTNDDSLHRALASGPPPLRLLVQKRAEADSSGLAFASNSLQRRKKGLLLRP"}, "B3": {"name": "PC-Par6^Cter (domain or fragment, UniProt Q9NPB6 121-346)", "chain": "PVAPLRTRPPLLISLPQDFRQVSSVIDVDLLPETHRRVRLHKHGSDRPLGFYIRDGMSVRVAPQGLERVPGIFISRLVRGGLAESTGLLAVSDEILEVNGIEVAGKTLDQVTDMMVANSHNLIVTVKPANQRNNVVRGASGRLTGPPSAGPGPAEPDSDDDSSDLVIENRQPPSSNGLSQGPPCWDLHPGCRHPGTRSSLPSLDDQEQASSGWGSRIRGDGSGFSL"}}, "key": {"[1]": {"target": "T1, mitochondria-targeted Par6A^Nter (UniProt Q9NPB6)", "T1 sequence": "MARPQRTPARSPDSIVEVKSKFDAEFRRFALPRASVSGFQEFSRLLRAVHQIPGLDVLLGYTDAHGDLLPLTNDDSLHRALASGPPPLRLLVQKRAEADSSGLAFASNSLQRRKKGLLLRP", "experiment": "relocalisation to mitochondria"}, "[2]": {"target": "T2, mitochondria-targeted Par6^Cter (UniProt Q9NPB6)", "T2 sequence": "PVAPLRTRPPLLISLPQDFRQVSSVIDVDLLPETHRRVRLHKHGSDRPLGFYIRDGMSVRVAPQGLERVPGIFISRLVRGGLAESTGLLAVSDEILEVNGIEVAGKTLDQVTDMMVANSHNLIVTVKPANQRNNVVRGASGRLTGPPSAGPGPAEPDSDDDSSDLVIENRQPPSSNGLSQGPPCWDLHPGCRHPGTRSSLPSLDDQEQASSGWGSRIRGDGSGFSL", "experiment": "relocalisation to mitochondria"}, "[3]": {"target": "T3, GST-Par6^Nter (UniProt Q9NPB6)", "T3 sequence": "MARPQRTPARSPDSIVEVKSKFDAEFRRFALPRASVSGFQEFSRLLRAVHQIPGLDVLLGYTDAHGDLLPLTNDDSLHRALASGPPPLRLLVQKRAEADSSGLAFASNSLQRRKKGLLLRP", "experiment": "pull-down"}}, "note": "Results are given in words; binding and its absence hold for the method and conditions named. For part of these data: In cells and extracts the contact can be indirect. Some entries that bind do so weakly or less than the wild type. Tags and fused reporters may be left off the sequences shown.", "data": [{"binder": "B1", "values": [{"measurement": "binding", "setting": "[1]", "value": "binds"}]}, {"binder": "B2", "values": [{"measurement": "binding", "setting": "[2]", "value": "binds"}]}, {"binder": "B3", "values": [{"measurement": "binding", "setting": "[3]", "value": "binds"}]}]}
